Measured values published in paper PMC7415812.
These are yes or no findings as the source states them, for the method shown. Binding seen in cells or lysates may run through a third protein. These calls come from enrichment with a bait or labelling near it, and not all partners need be listed.

Amino acid sequences for entries named in this document (tags omitted). Residues count along the entry.
UniProt O00206, residues 24-839: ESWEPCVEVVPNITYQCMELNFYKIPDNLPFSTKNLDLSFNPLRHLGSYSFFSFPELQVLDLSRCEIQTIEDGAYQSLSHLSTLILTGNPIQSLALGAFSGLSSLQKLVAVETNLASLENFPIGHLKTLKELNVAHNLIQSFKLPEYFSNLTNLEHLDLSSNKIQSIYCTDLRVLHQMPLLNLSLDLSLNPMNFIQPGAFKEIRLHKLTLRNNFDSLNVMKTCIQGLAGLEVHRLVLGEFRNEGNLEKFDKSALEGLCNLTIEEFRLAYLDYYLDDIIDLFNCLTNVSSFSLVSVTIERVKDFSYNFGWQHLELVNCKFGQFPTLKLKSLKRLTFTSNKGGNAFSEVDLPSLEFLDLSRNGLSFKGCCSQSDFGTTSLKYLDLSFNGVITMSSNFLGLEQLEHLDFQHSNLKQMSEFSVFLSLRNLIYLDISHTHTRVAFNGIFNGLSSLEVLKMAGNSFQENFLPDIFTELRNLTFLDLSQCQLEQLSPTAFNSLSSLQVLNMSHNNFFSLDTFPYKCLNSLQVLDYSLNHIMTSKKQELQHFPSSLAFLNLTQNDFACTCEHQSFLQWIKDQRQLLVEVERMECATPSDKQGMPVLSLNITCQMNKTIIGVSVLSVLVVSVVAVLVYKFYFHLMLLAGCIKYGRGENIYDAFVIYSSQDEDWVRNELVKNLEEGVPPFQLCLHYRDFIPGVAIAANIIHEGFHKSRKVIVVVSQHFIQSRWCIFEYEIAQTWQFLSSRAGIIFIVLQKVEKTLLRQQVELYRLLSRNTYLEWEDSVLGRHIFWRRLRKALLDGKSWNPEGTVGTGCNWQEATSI
UniProt Q13114: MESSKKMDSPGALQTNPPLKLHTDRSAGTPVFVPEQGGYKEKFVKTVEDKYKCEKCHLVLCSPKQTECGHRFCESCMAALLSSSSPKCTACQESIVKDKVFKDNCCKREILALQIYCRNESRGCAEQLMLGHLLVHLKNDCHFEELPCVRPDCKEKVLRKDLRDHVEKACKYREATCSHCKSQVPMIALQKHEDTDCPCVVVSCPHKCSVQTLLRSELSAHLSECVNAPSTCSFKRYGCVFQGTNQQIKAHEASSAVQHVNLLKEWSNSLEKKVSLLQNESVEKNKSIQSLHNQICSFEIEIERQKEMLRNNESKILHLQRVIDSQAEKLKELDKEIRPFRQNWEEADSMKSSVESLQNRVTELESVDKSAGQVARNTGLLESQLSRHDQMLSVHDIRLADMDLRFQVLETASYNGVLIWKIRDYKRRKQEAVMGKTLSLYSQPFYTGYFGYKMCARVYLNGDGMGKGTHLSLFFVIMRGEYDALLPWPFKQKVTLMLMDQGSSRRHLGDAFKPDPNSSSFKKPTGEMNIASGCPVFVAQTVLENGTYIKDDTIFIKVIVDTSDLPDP

Molecular target: Flag-TLR4 (UniProt O00206)
Assay: affinity purification with mass spectrometry; lysate of OVCAR-3 cells expressing Flag-TLR4 (50 mM Tris-HCl pH 7.4, 150 mM NaCl, 0.2 mM EDTA, 0.3% NP-40) on anti-FLAG beads overnight at 4 °C; eluted with Flag peptide; SDS-PAGE, silver staining; differential bands analysed by mass spectrometry

binding: binds
Substance: TNF receptor associated factor 3 (from UniProt Q13114 1-568)
